Reference: patent US20230086069A1
No constants are given. Whether binding was seen depends on the method and setting. Some binding calls cover weakened binding; strength is not graded here. One block for each binder: values may come before it.

Tests used:
[1] = biological target: rhesus CD19 on cells (CD20+ B cells of rhesus PBMC) (rhesus) (UniProt F7F486); assay: flow cytometry on PBMC, CD20+ B cells gated
[2] = biological target: rhesus CD19 on cells (CD20+ B cells of rhesus PBMC) (rhesus) (UniProt F7F486); assay: flow cytometry, gMFI of labelled antibody on CD20+ gated lymphocytes of rhesus PBMC
[3] = biological target: rhesus CD19 on cells (CD20+ B cells of rhesus PBMC) (rhesus) (UniProt F7F486); assay: flow cytometry, APC channel histograms of labelled antibody on CD20+ gated lymphocytes of rhesus PBMC

binding [1]: binds
binding [2]: binds
B1: SI-63C1 (recombinant chimeric mAb with BU12 mouse parental anti-CD19 variable sequence) (antibody, V domains shown)
VH: QVTLKESGPGILQPSQTLSLTCSFSGFSLSTSGMGVGWIRQPSGKGLEWLAHIWWDDDKRYNPALKSRLTISKDTSSNQVFLKIASVDTADTAAYYCARMELWSYYFDYWGQGTTLTVSS
VL: ENVLTQSPAIMSASPGEKVTMTCSASSSVSYMHWYQQKSSTSPKLWIYDTSKLASGVPGRFSGSGSGNSHFLTISSMEAEDVATYYCFQGSVYPFTFGSGTKLEIKR

binding [1]: binds
binding [2]: binds
binding [3]: binds
B2: SI-63C2 (recombinant mAb with H1 humanized anti-CD19 variable sequence) (antibody, V domains shown)
VH: QVTLKESGPGLVQPGQTLRLTCAFSGFSLSTSGMGVGWIRQPPGKGLEWLAHIWWDDDKRYNPALKSRLTISKDTSKNQVYLQMNSLDAEDTAVYYCARMELWSYYFDYWGQGTLVTVSS
VL: ENVLTQSPASLSASPGERVTITCSASSSVSYMHWYQQKPGQAPKLWIYDTSKLASGVPSRFSGSGSGNDHTLTISSMEPEDFATYYCFQGSVYPFTFGQGTKLEIKR
